Reference: article PMC6006164, “Natural cyclopeptide RA-V inhibits the NF-κB signaling pathway by targeting TAK1” (Cell Death & Disease, 2018)
Results are given in words; binding and its absence hold for the method and conditions named. In cells and extracts the contact can be indirect. Some entries that bind do so weakly or less than the wild type. For some of these results: Sequences can lack the tags named with a protein.

Tests used:
[1] = molecular target: T1, HA-TAB1 (TAK1-binding protein 1) (UniProt Q15750); experiment: co-IP; HEK293T cells transfected with Flag-TAK1 and HA-TAB2, HA-TAB1 or HA-TRAF6 for 24 h, then RA-V for 6 h (various concentrations, or 800 nM); RIPA lysates immunoprecipitated with HA antibody, immunoblot
T1 sequence: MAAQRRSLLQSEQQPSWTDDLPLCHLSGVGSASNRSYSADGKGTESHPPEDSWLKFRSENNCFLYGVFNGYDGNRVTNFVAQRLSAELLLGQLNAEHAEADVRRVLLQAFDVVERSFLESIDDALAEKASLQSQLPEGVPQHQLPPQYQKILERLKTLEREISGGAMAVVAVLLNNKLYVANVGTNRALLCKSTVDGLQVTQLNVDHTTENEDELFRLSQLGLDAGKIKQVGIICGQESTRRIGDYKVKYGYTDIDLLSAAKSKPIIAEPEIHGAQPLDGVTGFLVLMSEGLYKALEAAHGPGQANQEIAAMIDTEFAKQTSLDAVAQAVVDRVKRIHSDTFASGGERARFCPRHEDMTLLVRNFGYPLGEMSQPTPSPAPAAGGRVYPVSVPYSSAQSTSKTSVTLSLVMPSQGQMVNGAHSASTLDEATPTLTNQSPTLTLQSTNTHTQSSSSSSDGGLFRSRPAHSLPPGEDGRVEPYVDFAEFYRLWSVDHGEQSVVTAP

[2] = molecular target: T2, HA-TAB2 (TAK1-binding protein 2) (UniProt Q9NYJ8); experiment: as above
T2 sequence: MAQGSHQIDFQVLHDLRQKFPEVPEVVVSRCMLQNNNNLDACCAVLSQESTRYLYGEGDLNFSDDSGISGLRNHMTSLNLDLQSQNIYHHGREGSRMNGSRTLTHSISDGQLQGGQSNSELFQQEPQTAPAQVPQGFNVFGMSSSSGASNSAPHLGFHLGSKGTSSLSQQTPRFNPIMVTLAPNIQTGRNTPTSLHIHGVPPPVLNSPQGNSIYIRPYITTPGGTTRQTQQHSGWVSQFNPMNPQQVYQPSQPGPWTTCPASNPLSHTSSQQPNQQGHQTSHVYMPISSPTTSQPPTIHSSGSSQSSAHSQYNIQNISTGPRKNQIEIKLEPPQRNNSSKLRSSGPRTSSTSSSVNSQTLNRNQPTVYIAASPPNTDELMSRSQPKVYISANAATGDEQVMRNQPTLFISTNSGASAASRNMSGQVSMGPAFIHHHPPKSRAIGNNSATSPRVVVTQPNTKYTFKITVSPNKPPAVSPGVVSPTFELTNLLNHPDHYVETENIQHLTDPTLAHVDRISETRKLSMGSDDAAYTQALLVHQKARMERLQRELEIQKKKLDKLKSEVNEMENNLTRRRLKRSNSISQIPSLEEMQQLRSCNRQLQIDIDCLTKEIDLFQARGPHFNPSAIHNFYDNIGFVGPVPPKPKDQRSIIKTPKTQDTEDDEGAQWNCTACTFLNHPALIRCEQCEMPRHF

[3] = molecular target: T3, endogenous TAK1 (HEK293T) (human (endogenous in HEK293T)) (UniProt O43318); experiment: co-IP; endogenous proteins; HEK293T or RAW264.7 cells, 800 nM RA-V for 6 h, then 10 ng/mL TNF-α for 2 h or 1 μg/mL LPS for 3 h; lysates immunoprecipitated with TAK1 antibody or control IgG, immunoblot
T3 sequence: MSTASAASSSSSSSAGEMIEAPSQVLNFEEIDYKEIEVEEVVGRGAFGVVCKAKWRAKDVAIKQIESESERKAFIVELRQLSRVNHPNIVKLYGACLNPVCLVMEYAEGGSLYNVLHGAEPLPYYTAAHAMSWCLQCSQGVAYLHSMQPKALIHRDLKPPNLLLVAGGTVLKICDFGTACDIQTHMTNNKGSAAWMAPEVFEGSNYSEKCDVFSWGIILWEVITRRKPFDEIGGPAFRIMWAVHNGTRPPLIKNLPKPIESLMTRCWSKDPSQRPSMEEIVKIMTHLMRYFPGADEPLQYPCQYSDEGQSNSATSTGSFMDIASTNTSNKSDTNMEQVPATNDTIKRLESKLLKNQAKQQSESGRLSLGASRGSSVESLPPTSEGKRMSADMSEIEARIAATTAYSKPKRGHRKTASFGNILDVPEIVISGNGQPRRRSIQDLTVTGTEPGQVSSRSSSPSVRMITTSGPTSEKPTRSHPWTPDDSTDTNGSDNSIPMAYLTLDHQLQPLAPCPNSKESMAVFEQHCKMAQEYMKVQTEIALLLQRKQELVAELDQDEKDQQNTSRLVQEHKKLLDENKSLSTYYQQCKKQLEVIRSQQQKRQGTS

[4] = molecular target: T4, endogenous TAK1 (RAW264.7) (mouse (endogenous in RAW264.7)) (UniProt Q62073); experiment: as above
T4 sequence: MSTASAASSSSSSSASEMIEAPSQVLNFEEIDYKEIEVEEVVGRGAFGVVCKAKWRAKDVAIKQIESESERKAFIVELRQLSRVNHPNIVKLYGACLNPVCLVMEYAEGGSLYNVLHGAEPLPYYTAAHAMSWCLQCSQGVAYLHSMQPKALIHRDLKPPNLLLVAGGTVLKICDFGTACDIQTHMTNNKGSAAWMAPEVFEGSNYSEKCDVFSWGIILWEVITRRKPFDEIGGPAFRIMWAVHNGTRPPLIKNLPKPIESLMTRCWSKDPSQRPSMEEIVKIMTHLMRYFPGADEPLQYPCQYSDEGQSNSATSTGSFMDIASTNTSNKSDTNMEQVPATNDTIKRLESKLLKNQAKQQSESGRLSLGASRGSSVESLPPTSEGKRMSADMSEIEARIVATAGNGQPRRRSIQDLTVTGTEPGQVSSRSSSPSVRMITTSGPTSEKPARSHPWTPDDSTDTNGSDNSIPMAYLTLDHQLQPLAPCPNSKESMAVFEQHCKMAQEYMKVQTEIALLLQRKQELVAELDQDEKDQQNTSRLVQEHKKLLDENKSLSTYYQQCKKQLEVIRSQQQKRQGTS

B1: Flag-TAK1 (transforming growth factor beta-activated kinase 1) (enzyme, UniProt O43318 1-606)
chain: T3 sequence
In the case of B1, the binding [1] is reported as “binds” and the binding [2] is reported as “binds”.

B2: endogenous TAB2 (HEK293T) (protein, UniProt Q9NYJ8 1-693)
chain: T2 sequence
In the case of B2, the binding [3] is reported as “binds”.

B3: endogenous TAB2 (RAW264.7) (protein, UniProt Q99K90 1-693)
chain: MAQGSHQIDFQVLHDLRQKFPEVPEVVVSRCMLQNNNNLDACCAVLSQESTRYLYGEGDLNFSDESGISGLRNHMTSLNLDLQSQNVYHHGREGSRVNGSRTLTHSVSDGQLHGGQSNNELFQQEPQTAPAQVPQGFNVFGMPSTSGASNSTPHLGFHLGSKGTSNLSQQTPRFNPIMVTLAPNIQTGRSTPTSLHIHGVPPPVLNSPQGNSIYIRPYITTPSGTARQTQQHSGWVSQFNPMNPQQAYQPSQPGPWTTYPASNPLPHTSTQQPNQQGHQTSHVYMPISSPTTPQPPTIHSSGSSQSSAHSQYNIQNISTGPRKNQIEIKLEPPQRNSSSKLRSSGPRTASTSSLVNSQTLNRNQPTVYIAASPPNTDEMISRSQPKVYISANATAGDEQGMRNQPTLFISTNSGPSAASRNMSGQVSMGPAFIHHHPPKSRVLGGNSATSPRVVVTQPNTKYTFKITVSPNKPPAVSPGVVSPTFELTNLLNHPDHYVETENIQHLTDPALAHVDRISEARKLSMGSDDAAYTQALLVHQKARMERLQRELEMQKKKLDKLKSEVNEMENNLTRRRLKRSNSISQIPSLEEMQQLRSCNRQLQIDIDCLTKEIDLFQARGPHFNPSAIHNFYDNIGFVGPVPPKPKDQRSTIKAPKTQDAEDEEGAQWNCTACTFLNHPALIRCEQCEMPRHF
With B3 the binding [4] was “binds”.
